Assay results taken from article PMC12608155, “Discovery of Potential Antileishmanial Compounds Through Phenotypic Screening of an Alkaloid Library” (Molecules, 2025).
Where two headings read alike, the source gives them in different places.

Tested on: L. donovani IRFP axenic amastigotes
Assay: Primary single-concentration screening on axenic amastigotes, growth inhibition at 72 h
Format: cell-based
Conditions: Leishmania donovani

CN[C@@H]1C[C@H]2O[C@@](C)([C@@H]1OC)n1c3ccccc3c3c4c(c5c6ccccc6n2c5c31)C(=O)NC4 [Staurosporine]
inhibition at 1 µM (read-out: Growth Inhibition (%) at 72h, 1 µM_Exp1): 96.3%
inhibition at 1 µM (read-out: Growth Inhibition (%) at 72h, 1 µM_Exp2): 98.7%
inhibition at 10 µM (read-out: Growth Inhibition (%) at 72h, 10 µM_Exp1): 100%
inhibition at 10 µM (read-out: Growth Inhibition (%) at 72h, 10 µM_Exp2): 99.8%
